Screen size: about 73,000 compounds; about 1,800 (2.5%) were called active. Not shown: some 13% with an inconclusive outcome. Calls follow the shape of the dose curve; as a rule, active = well fitted activation curve with a large enough effect; inconclusive = small, poorly fitted or top-dose-only effect; inactive = no such curve, though single readings can be large or run the other way. This is one part of the list.

The assay can be described thus: qHTS Assay for Agonists of the Thyroid Stimulating Hormone Receptor: Activators of Intracellular cAMP Concentrations in Parental HEK 293. (Quantitative high-throughput screening tests each substance at several concentrations.)
Consider `CNC(=O)N(c1ccccc1)c1ccccc1`, for which the result was inactive.
As to `Cc1nnc(NS(=O)(=O)c2ccc(N)cc2)s1`, the outcome was inactive.

These data come from the GenesisPotency data set.
